Data taken from PubChem BioAssay AID493014 (National Center for Advancing Translational Sciences (NCATS), 2011).
Several values for one entry are separate records, joined by “and”; a condition that tells them apart may be missing. Equal entries are not always repeated. Among all 340,000 compounds or so, about 170 (0.05%) were called active. This list was built around the results that the source calls inconclusive (neither active nor inactive); the mix of calls is not that of the screen. Calls come from the whole dose curve; as a rule, active = well fitted inhibition curve with a large enough effect in the signal ratio, with a control signal flat (not every such curve was filed as active); inconclusive = small, poorly fitted or top-dose-only effect, or effect the other way, or a change in a side signal; inactive = flat fitted curve, though single readings scatter; the % refers to the signal ratio. Potencies beside an inconclusive call are fits to weak or partial responses and may not hold up.
Potency is the fitted concentration of half-maximal effect.

Assay: qHTS Assay to Find Inhibitors of Chronic Active B-Cell Receptor Signaling;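 for activity change, negative = inhibition: plate controls were basal doxycycline-induced cells for no effect and cells given 10 µM MG132 for full effect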
Details: ABC-DLBCL IkBa-CBG/CBR reporter, luminescence ratio (green luciferase fused to IkBa over red control in TMD8 lymphoma cells), 4 h; activity change, negative = inhibition: at 46.1 µM (top of the series)
Source text: NIH Molecular Libraries Probe Production Network [MLPCN] NIH Chemical Genomics Center [NCGC] MLPCN Grant: 1 R03 DA031086-01A1 PI Name: Dr. R. Eric Davis NCGC Assay Overview: Diffuse large B-cell lymphoma (DLBCL) is the most common category of non-Hodgkin lymphoma, with ~20,000 new cases per year in the United States. DLBCL should be regarded as a collection of different neoplasms. Microarray gene expression analysis has defined two principal types of DLBCL, named for their similarity to normal B cell stages or activation states: a germinal center B-cell (GCB) type, and an activated B-cell (ABC) type. In ABC-DLBCL, a constitutive high-level activity of the NF-kappaB family of transcription factors has been observed (1) and NF-kappaB target genes are more highly expressed in ABC primary tumors than in GCB tumors. Functional studies have shown a constitutive high-level activity of the IkappaB (inhibitor of kappa-B) kinase (IKK) complex. […] Further analysis of DLBCL primary tumors for NF-kappaB target gene expression imply that although CARD11 is required for constitutive IKK activity in all ABC-DLBCL lines, mutations in CARD11 may be the root cause of IKK activation only in lines or tumors with such mutations. In other words, CARD11 mutations may explain NF-kappaB activation in only 10% of ABC-DLBCL cases. […] This process has been termed 'chronic active BCR signaling' (CABS). The goal of this screen is to find small-molecule inhibitors of the CABS pathway found in ABC-DLBCL lines using a cell-based assay that measures IkappaBalpa stability, which has already been extensively validated in the OCI-Ly3 line (PubChem AID:445; REF: 4). […] The assay uses green (CBG68) and red (CBR) emitting beetle luciferases [Chroma-GloTM developed by Promega Corp.] where the green luciferase is fused to IkappaBalpha and the red luciferase is present in its native state. Both luciferase genes are stably present in the TMD8 human ABC DLBCL cell line, but their expression is under the control of tetracycline-inducible promoters. Following the addition of doxycycline to induce expression of the luciferases, the green luminescence in control cultures rises only slowly because the CBG fusion partner IkappaBalpha is targeted by IKK activity for rapid degradation. In contrast, green luminescence rises rapidly in the presence of proteasome inhibitors or IKK inhibitors. The rise in red luminescence of CBR is not affected by proteasome or IKK inhibitors, and serves as normalization for cell number and nonspecific effects. Compounds were screened as a concentration-titration series that ranged from 46 uM to 3 nM.
NCGC Assay Protocol Summary: Cells were seeded in 1536-well plates at 5000 cells/4uL in IMDM medium containing 0.5% FBS, w/o phenol red, 1% penicillin/streptomycin. Then, 23 nL of compounds or DMSO were delivered to each well using a pin tool. One uL 20ng/ml doxycycline was then dispensed into white solid 1536-well plates and the plates were incubated at 37C/5% C02 in a cell incubator for 4 hrs. Then 4 uL luminescent substrate mix (in-house prepared: 150 mM Tris-Cl, pH 7.6, 3 mM MgCl2, 1% Triton X-100, 5 mM DTT, 0.2 mM CoA, 0.15 mM ATP, 5 mM D-luciferin, final concentrations) was added to each well. The plate was incubated at r.t. for 10-15 min. The plates were measured on a ViewLux plate reader for green luminescence (540/20 nm filter) and red luminescence (618/8 nm filter). The green and red luminescent signals were corrected for red and green luminescence filter overlap using previously determined filter calibration constants (determined using the procedure outlined in the Promega Technical Manual; REF 4). The %Activity was determined from the ratio of corrected green/red luminescent values. MG132 were used as control. […] Red luminescent %Activity was normalized to the difference between red luminesence in basal cells (0%Activity) and zero luminescence (-100% Activity). […]
In the case of `Cc1nonc1NC(=O)CSc1nc2ccccc2o1`, the Potency is reported as inconclusive: 35.5 µM [falling, single point]. In the case of `Cc1ccc(C(=O)N/C(=C\c2cccs2)C(=O)NCC2CCCO2)cc1C` (stereo not drawn), the activity change, negative = inhibition is reported as inconclusive: 7.18%. For `Cc1ccc(C(=O)NNC(=S)NC(=O)c2ccco2)cc1`, the Potency was inconclusive: 7.94 µM [falling, partial curve]. With `CCOc1ccc(N2C(=O)CC(N(CCc3ccc(OC)c(OC)c3)C(=S)Nc3ccccc3)C2=O)cc1` (stereo not drawn) the activity change, negative = inhibition was inconclusive: 3.16%. With `O=c1[nH]c2cc3c(cc2cc1CN(Cc1cccnc1)Cc1nnnn1Cc1ccco1)OCCO3` the Potency was inconclusive: 6.51 µM [falling, partial curve, poor fit]. With `CCOc1ccc(S(=O)(=O)N(CC(=O)Nc2cccnc2)c2ccc(F)cc2)cc1` the activity change, negative = inhibition was “inactive”. In the case of `Cc1ccc(NC(=O)COC(=O)C2=NNC(=O)CC2)c(Br)c1`, the activity change, negative = inhibition is reported as “inactive”. In the case of `COC(=O)c1sc(NC(C)=O)c(C(=O)OC)c1C`, the activity change, negative = inhibition is reported as inconclusive: -5.66%. With `CCCCSc1nc(CCC)cc(=O)[nH]1` the Potency was inconclusive: 29.1 µM [falling, single point]. With `O=C(CSc1nc(Nc2ccccc2)nc(N2CCOCC2)n1)Nc1cc(Cl)ccc1O` the activity change, negative = inhibition was inconclusive: 2.5%. In the case of `CCOC(=O)c1cnc(-n2nc(C)cc2C)nc1Nc1ccc(O)cc1`, the Potency is reported as inconclusive: 6.31 µM [falling, single point]. For `Cc1ccc(C)c(NC(=O)CN(C)S(=O)(=O)c2ccccc2)c1`, the activity change, negative = inhibition was inconclusive: -28.8%. With `Cn1nc(-c2ccc(C(=O)Nc3cccnc3)cc2)c2ccccc2c1=O` the activity change, negative = inhibition was inconclusive: -4.46%. With `Fc1cccc(CNc2ncnc3ccc(-c4ccc5c(c4)OCO5)cc23)c1` the activity change, negative = inhibition was inconclusive: -11.2% and inconclusive: 0.765%. In the case of `O=C1c2c(O)ccc(O)c2C(=O)c2c(NCCNCCO)ccc(NCCNCCO)c21`, the Potency is reported as inconclusive: 2.59 µM [rising, partial curve]. For `COc1ccc(C(=O)C2CCCN(C(=O)c3ccccc3C(C)=O)C2)cc1F` (stereo not drawn), the activity change, negative = inhibition was inconclusive: -19%. For `CCOP(=O)(OCC)C(NC(=O)Nc1ccc(Cl)cc1)C(=O)N(CC)CC` (stereo not drawn), the activity change, negative = inhibition was inconclusive: 18.2%. For `O=C(Nc1cccc2ncccc12)c1ccc(-c2ccc(Cl)cc2Cl)o1`, the Potency was inconclusive: 12.6 µM [falling, partial curve]. With `C=CCc1ccc(OCC(O)CN2CCc3ccccc3C2)c(OC)c1` (stereo not drawn) the activity change, negative = inhibition was “inactive”. With `O=C(CN1CCC(O)(c2ccc3c(c2)OCO3)CC1)N1CCOCC1` the Potency was inconclusive: 25.9 µM [rising, partial curve, poor fit]. For `COc1cc(C)nc(Oc2ccc(/C=N/O)cc2)n1`, the activity change, negative = inhibition was inconclusive: -0.189%. In the case of `COc1ccc(C2CC(c3ccccc3)=NN2C(=O)COC(=O)c2cccc(S(=O)(=O)N(C)C)c2)cc1` (stereo not drawn), the activity change, negative = inhibition is reported as inconclusive: 14.6%. For `CCOC(=O)C(C)(C)N(Cc1cccc(C)c1)S(=O)(=O)c1cccc([N+](=O)[O-])c1`, the activity change, negative = inhibition was inconclusive: 10.2%. For `Cc1cc2cc(CNC(=O)Nc3ccccc3)ccc2[nH]1`, the activity change, negative = inhibition was inconclusive: -0.0829%. With `O=C(COc1ccccc1C(=O)c1cnn(-c2ccccc2)c1)Nc1ccc2ccccc2c1` the activity change, negative = inhibition was inconclusive: -2%. With `CCCCn1c(=O)[nH]c(=O)c2c1nc(-c1ccc(OCC)cc1)n2CC` the activity change, negative = inhibition was inconclusive: -16.3%. For `Cn1nnnc1SCC1=C(C(=O)O)N2C(=O)C(NC(=O)Cn3nc(C(F)F)cc3C3CC3)C2SC1` (stereo not drawn), the activity change, negative = inhibition was “inactive”. For `COc1ccc(OC)c(/C=C/c2c([N+](=O)[O-])c(=O)n(C)c(=O)n2C)c1`, the activity change, negative = inhibition was inconclusive: -24.5%. For `c1coc(CNc2nc3nonc3nc2NCc2ccco2)c1`, the activity change, negative = inhibition was inconclusive: -2.91%. For `CS(=O)(=O)N1CCN(c2ccc(NC(=O)C(c3ccccc3)c3ccccc3)cc2)CC1`, the activity change, negative = inhibition was “inactive”. With `O=C(CNC(=O)c1ccco1)Nc1cccc(Cl)c1` the activity change, negative = inhibition was inconclusive: 2.09%. With `CCOC(=O)c1nnn(-c2nonc2N)c1COc1cc(C)c(Cl)c(C)c1` the activity change, negative = inhibition was inconclusive: -10.3%. For `CCC(=O)Nc1ccc(Cl)c(NC(=S)NC(=O)c2cc3ccccc3o2)c1`, the activity change, negative = inhibition was inconclusive: -12.1%. For `COCCCC1CCN(C(=O)C2CCC(=O)N(CCc3ccccc3)C2)CC1` (stereo not drawn), the activity change, negative = inhibition was inconclusive: 6.34%. In the case of `CN1CCC(=NNC(=O)CN(c2cccc([N+](=O)[O-])c2)S(=O)(=O)c2ccccc2)CC1`, the activity change, negative = inhibition is reported as inconclusive: 0.49%. In the case of `CCc1ccccc1NC(=O)c1ccc(Cn2cc([N+](=O)[O-])cn2)cc1`, the activity change, negative = inhibition is reported as “inactive”. For `NC(=O)c1nsc(C(=O)N(c2ccccc2)C(C(=O)NC2CCCC2)c2ccncc2)c1N` (stereo not drawn), the activity change, negative = inhibition was inconclusive: 2.83%. In the case of `CCN(CC)S(=O)(=O)c1ccc2c(c1)c(=O)c(C(=O)NCCc1ccc(OC)c(OC)c1)cn2C`, the activity change, negative = inhibition is reported as inconclusive: -6.91%.
